Test: Steady-state fluorescence in buffer and water/organic solvent mixtures
Format: physicochemical
Conditions: fluorophore

Structure (SMILES)	Stoke shift
Nc1ccc2nc(C3=N[C@@H](C(=O)O)CS3)sc2c1 [amino-Luciferin, aminoluciferin, reference compound]	~145 nm
O=C(O)[C@H]1CSC(c2nc3ccc(O)cc3s2)=N1 [Free Luc, luciferin]	about 210 nm
